Experimental data as given in publication PMC12670160, “A drug-repurposing screen of FDA- and EMA-approved drugs identifies two NF-κB inhibitors active against eumycetoma” (Journal of Antimicrobial Chemotherapy, 2025).
Counter-ions that a name gives are not always drawn. Like-named read-outs stand apart in the source and are kept apart here. The whole screen tested about 5,300 compounds, of which about 130 (2.5%) showed an effect of 50% or more. Some of the results follow.

Tested on: M. mycetomatis strain mm55
Conditions: 96 h, 2 µM

Cc1ccc2c(c1)[C@]13CCCC[C@@H]1[C@H](C2)N(C)CC3 [ONC0001964, dimemorfan]
% viability (m. mycetomatis hyphae): 96.79%

C[C@]12CC[C@H](O)C[C@H]1CC[C@@H]1[C@@H]2CC[C@]2(C)[C@@H](c3ccc(=O)oc3)C[C@H]3O[C@]132 [ONC0000923, resibufogenin]
% viability (m. mycetomatis hyphae): 65.14%

CC(=O)O[C@H]1CC[C@@]2(C)C(=CCC3C2CC[C@]2(C)C(=O)CCC32)C1 (stereo partly drawn) [ONC0003269, prasterone acetate]
% viability (m. mycetomatis hyphae): 44.2%

NNC(=O)CN1C(=O)CN=C(c2ccccc2)c2cc(Br)ccc21 [ONC0002593, gidazepam]
% viability (m. mycetomatis hyphae): 72.34%

CC[C@@H](CO)NC(=O)[C@@H]1C=C2c3cccc4[nH]cc(c34)C[C@H]2N(C)C1 [ONC0002697, methylergometrine]
% viability (m. mycetomatis hyphae): 60.3%

CCOC(=O)Nc1ccc(NCc2ccc(F)cc2)cc1N [ONC0001235, retigabine]
% viability (m. mycetomatis hyphae): 53.09%

COc1ccc2c(c1OC)C(=O)O[C@@H]2[C@H]1c2cc3c(cc2CCN1C)OCO3 [ONC0000646, hydrastine 1r 9s]
% viability (m. mycetomatis hyphae): 84.03%

CN1[C@@H]2CC[C@H]1C[C@@H](OC(=O)c1cc(Cl)cc(Cl)c1)C2 [ONC0000390, bemesetron]
% viability (primary screen, metabolic activity vs growth control, inhibitor): 83.79%

COc1ccc(CC2NCCc3cc(OC)c(OC)cc32)cc1OC (stereo not drawn) [ONC0004956, tetrahydropapaverine hydrochloride]
% viability (m. mycetomatis hyphae): 85.71%

COc1ccsc1CNCC[C@@]1(c2ccccn2)CCOC2(CCCC2)C1 [ONC0001391, oliceridine hydrochloride]
% viability (m. mycetomatis hyphae): 102.3%

O=C(O)CNC(=O)C1C(=O)N(C2CCCCC2)C(=O)N(C2CCCCC2)C1=O [ONC0000974, daprodustat]
% viability (m. mycetomatis hyphae): 112.7%

CCCCCCCCCCC(=O)O[C@H]1CC[C@H]2[C@@H]3CCC4=CC(=O)CC[C@]4(C)[C@H]3CC[C@]12C [ONC0001989, testosterone undecanoate]
% viability (m. mycetomatis hyphae): 86.49%

CN(C(=O)/C=C/c1ccoc1)[C@@H]1CC[C@@]2(O)[C@H]3Cc4ccc(O)c5c4[C@@]2(CCN3CC2CC2)[C@H]1O5 [ONC0001145, nalfurafine hydrochloride]
% viability (m. mycetomatis hyphae): 84.21%

N#C[C@H](O[C@@H]1O[C@H](CO[C@@H]2O[C@H](CO)[C@@H](O)[C@H](O)[C@H]2O)[C@@H](O)[C@H](O)[C@H]1O)c1ccccc1 [ONC0004987, amygdalin]
% viability (m. mycetomatis hyphae): 64.45%

CC(=O)N1CC[N+](C)(C)CC1 [ONC0000048, 4acetyl11dimethylpiperazinium]
% viability (m. mycetomatis hyphae): 75.95%
